Experimental data as given in article PMC10406855.
These are yes or no findings as the source states them, for the method shown. Binding seen in cells or lysates may run through a third protein. Here binding means that the protein was enriched with, or labelled near, the bait; the list need not be complete.

Amino acid sequences for entries named in this document (tags omitted).
UniProt Q08211: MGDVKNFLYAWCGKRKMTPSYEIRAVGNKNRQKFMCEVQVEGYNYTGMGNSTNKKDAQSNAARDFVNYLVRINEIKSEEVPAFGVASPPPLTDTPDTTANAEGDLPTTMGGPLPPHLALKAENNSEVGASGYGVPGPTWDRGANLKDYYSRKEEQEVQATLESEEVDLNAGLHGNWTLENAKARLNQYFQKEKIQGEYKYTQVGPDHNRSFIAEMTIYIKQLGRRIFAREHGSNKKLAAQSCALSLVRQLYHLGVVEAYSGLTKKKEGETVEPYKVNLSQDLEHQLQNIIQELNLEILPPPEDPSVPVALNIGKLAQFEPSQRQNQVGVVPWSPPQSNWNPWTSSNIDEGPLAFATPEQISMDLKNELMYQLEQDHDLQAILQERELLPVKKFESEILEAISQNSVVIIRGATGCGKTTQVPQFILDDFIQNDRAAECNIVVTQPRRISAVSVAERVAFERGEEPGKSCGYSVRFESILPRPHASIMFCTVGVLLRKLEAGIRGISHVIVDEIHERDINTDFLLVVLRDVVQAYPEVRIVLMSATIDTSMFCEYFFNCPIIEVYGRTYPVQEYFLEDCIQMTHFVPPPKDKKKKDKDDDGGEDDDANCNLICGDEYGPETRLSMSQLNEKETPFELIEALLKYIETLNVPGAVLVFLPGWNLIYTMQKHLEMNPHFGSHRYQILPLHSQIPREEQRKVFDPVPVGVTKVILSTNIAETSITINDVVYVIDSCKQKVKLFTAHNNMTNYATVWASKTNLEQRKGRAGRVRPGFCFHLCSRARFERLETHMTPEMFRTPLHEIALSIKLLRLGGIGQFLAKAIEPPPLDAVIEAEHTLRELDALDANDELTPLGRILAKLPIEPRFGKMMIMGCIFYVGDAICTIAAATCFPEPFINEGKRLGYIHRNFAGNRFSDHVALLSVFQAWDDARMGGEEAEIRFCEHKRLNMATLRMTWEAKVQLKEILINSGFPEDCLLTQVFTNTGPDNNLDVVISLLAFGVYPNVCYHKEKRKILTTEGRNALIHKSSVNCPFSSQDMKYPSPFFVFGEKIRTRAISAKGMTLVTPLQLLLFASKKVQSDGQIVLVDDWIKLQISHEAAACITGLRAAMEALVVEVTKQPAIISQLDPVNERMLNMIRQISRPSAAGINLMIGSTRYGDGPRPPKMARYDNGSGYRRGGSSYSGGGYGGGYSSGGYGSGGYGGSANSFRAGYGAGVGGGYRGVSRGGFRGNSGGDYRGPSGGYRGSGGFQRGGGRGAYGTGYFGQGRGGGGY

Target: DHX9 (human (endogenous in BC cell lines)) (UniProt Q08211)
Test: affinity purification with mass spectrometry; whole-cell lysate of BC cells precipitated with anti-DHX9 or control IgG and protein A/G agarose beads; differing band (30-40 kDa) analysed by MS

- binding: binds
B1: RING finger and FYVE-like domain-containing protein 1 (RFFL) (protein, UniProt Q8WZ73 1-363)
chain: MWATCCNWFCLDGQPEEVPPPQGARMQAYSNPGYSSFPSPTGLEPSCKSCGAHFANTARKQTCLDCKKNFCMTCSSQVGNGPRLCLLCQRFRATAFQREELMKMKVKDLRDYLSLHDISTEMCREKEELVLLVLGQQPVISQEDRTRASTLSPDFPEQQAFLTQPHSSMVPPTSPNLPSSSAQATSVPPAQVQENQQANGHVSQDQEEPVYLESVARVPAEDETQSIDSEDSFVPGRRASLSDLTDLEDIEGLTVRQLKEILARNFVNYKGCCEKWELMERVTRLYKDQKGLQHLVSGAEDQNGGAVPSGLEENLCKICMDSPIDCVLLECGHMVTCTKCGKRMNECPICRQYVIRAVHVFRS
